{"source": "paper PMC4827801", "target": "HPV31 E8^E2C-HA (Human papillomavirus 31)", "assay": "co-IP; lysates of stable 293T cell lines (1.5 x 10^7 cells) precipitated with magnetic anti-HA beads, immunoblot for endogenous proteins; IP-buffer 50mM HEPES pH7.5, 150mM NaCl, 10% glycerol, 5mM EDTA, 1mM DTT or 50mM HEPES pH7.9, 150mM NaCl, 0.3% Igepal 630, 1mM DTT", "note": "Results are given in words; binding and its absence hold for the method and conditions named. Binding seen in cells or lysates may run through a third protein. Binding calls can cover weak binding; strength is not graded here."}
{"binder": "TBL1 (transducin-beta like 1) (protein, UniProt O60907 1-577) MTELAGASSSCCHRPAGRGAMQSVLHHFQRLRGREGGSHFINTSSPRGEAKMSITSDEVNFLVYRYLQESGFSHSAFTFGIESHISQSNINGTLVPPAALISILQKGLQYVEAEISINEDGTVFDGRPIESLSLIDAVMPDVVQTRQQAFREKLAQQQASAAAAAAAATAAATAATTTSAGVSHQNPSKNREATVNGEENRAHSVNNHAKPMEIDGEVEIPSSKATVLRGHESEVFICAWNPVSDLLASGSGDSTARIWNLNENSNGGSTQLVLRHCIREGGHDVPSNKDVTSLDWNTNGTLLATGSYDGFARIWTEDGNLASTLGQHKGPIFALKWNRKGNYILSAGVDKTTIIWDAHTGEAKQQFPFHSAPALDVDWQNNTTFASCSTDMCIHVCRLGCDRPVKTFQGHTNEVNAIKWDPSGMLLASCSDDMTLKIWSMKQEVCIHDLQAHNKEIYTIKWSPTGPATSNPNSNIMLASASFDSTVRLWDIERGVCTHTLTKHQEPVYSVAFSPDGKYLASGSFDKCVHIWNTQSGNLVHSYRGTGGIFEVCWNARGDKVGASASDGSVCVLDLRK", "values": [{"measurement": "binding", "value": "binds"}]}
